Assay results: the supplement of paper PMC10670038
± gives the standard deviation of the averaged measurements. This list holds what a sample rich in lowest values left over.

system: TE10; assay: relative cell viability vs DMSO, compound + 0.2 uM CuET (fraction); TE10 is an esophageal squamous carcinoma line; higher = less cytotoxic; conditions: 2 µM; co-treatment: CuET (bis(diethyldithiocarbamate)copper) 0.2 uM; 48 h
Method: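 TE10 ESCC cells (1,000/well, 384-well plates) were treated with Selleck bioactive library compounds at 2 uM combined with 0.2 uM CuET (copper diethyldithiocarbamate) for 48 h. Viability was read by CellTiter-Glo and expressed relative to DMSO wells. Two technical replicates (A, B).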

Compound | relative cell viability
O=C(O)C1=C[C@@H](O)[C@@H](O)[C@H](O)C1 [Shikimic Acid] | 1.1 ± 0.056
